Reference: publication PMC7772139
No constants are given. Whether binding was seen depends on the method and setting.

B1: rpoA (protein, UniProt P56762 1-329)
chain: MVREKVKVSTRTLQWKCVESKRDSKRLYYGRFILSPLMKGQADTIGIAMRRALLGEIEGTCITRAKSENIPHDYSNIAGIQESVHEILMNLNEIVLRSNLYGTRNALICVQGPGYITARDIILPPAVEIIDNTQHIATLTEPIDLCIELKIERNRGYSLKMSNNFEDRSYPIDAVFMPVENANHSIHSYGNGNEKQEILFLEIWTNGSLTPKEALHQASRNLINLFIPFLHVEEETFYLENNQHQVTLPFFPFHNRLVNLRKKKKTKELAFQYIFIDQLELPPRIYNCLKKSNIHTLLDLLNNSQEDLIKIEHFHVEDVKKILDILEKK
B2: PAP10/Trxz (protein, UniProt Q9M7X9 1-183)
chain: MALVQSRTFPHLNTPLSPILSSLHAPSSLFIRREIRPVAAPFSSSTAGNLPFSPLTRPRKLLCPPPRGKFVREDYLVKKLSAQELQELVKGDRKVPLIVDFYATWCGPCILMAQELEMLAVEYESNAIIVKVDTDDEYEFARDMQVRGLPTLFFISPDPSKDAIRTEGLIPLQMMHDIIDNEM
B3: PAP4/FSD2 (protein, UniProt Q9LU64 1-305)
chain: MMNVAVTATPSSLLYSPLLLPSQGPNRRMQWKRNGKRRLGTKVAVSGVITAGFELKPPPYPLDALEPHMSRETLDYHWGKHHKTYVENLNKQILGTDLDALSLEEVVLLSYNKGNMLPAFNNAAQAWNHEFFWESIQPGGGGKPTGELLRLIERDFGSFEEFLERFKSAAASNFGSGWTWLAYKANRLDVANAVNPLPKEEDKKLVIVKTPNAVNPLVWDYSPLLTIDTWEHAYYLDFENRRAEYINTFMEKLVSWETVSTRLESAIARAVQREQEGTETEDEENPDDEVPEVYLDSDIDVSEVD
B4: PAP9/FSD3 (protein, UniProt Q9FMX0 1-263)
chain: MSSCVVTTSCFYTISDSSIRLKSPKLLNLSNQQRRRSLRSRGGLKVEAYYGLKTPPYPLDALEPYMSRRTLEVHWGKHHRGYVDNLNKQLGKDDRLYGYTMEELIKATYNNGNPLPEFNNAAQVYNHDFFWESMQPGGGDTPQKGVLEQIDKDFGSFTNFREKFTNAALTQFGSGWVWLVLKREERRLEVVKTSNAINPLVWDDIPIICVDVWEHSYYLDYKNDRAKYINTFLNHLVSWNAAMSRMARAEAFVNLGEPNIPIA
B5: PAP8/PTAC6 (protein, UniProt Q9XI19 1-328)
chain: MASSAASPSLSLLSFTSKPPYPSGSQRLFASFRTDGLFAPLTLKSRRGRGIVVKVDDVDADGGGADEYDMDDEEVEEVDNKKDYDVEYDPLAAAIAAAGGGGDGDIAFVQSKSFISTQGWDSDMVVDYRINEDEFHKLSLMDCDFFIRKPPDPDNDVYDFREMYVTPPDTDIYSIPRVLAPMPQKYIRCAMSDYGCYNVTEPPIDAPRDPLYKSEREISKVFLTKHYRNRRTNDPEFVLDLEEIYVIDSKTKSITRARVLVTVPGGRKRDRKDDLLVIRDNGTSFKIIHVGERDDPTTVIEREEWTKTREDMEKHLRKLRDFSVSNWF
B6: PAP11/MurE-Like (protein, UniProt F4I3P9 1-772)
chain: MAFTFLSPHPVFLSLTGTTSSFSYKPVLLPFSRNSRTLTVAAGPARRNSYPNPADDDPPEAPEDSMHGVSKFQQIQRQAARARKLEEEDFEKNRNTYLSAIADVEDAAETGRDDEESGGDLFSDIDRAISMKRSEFVKQGLLKPNPPKTASLKKIGEEGNEEEGDVTDDVDELDEEEVVDLDEIDKLTGLTEISDEEDWVDEEGNTRINKKKEFGSDHQFEFDLDDFGESKARIVEPKFKMCLAELLDESKVVPISVYGDLDVEITGIQHDSRGVSAGDLFVCCLGSENFLSEADKRGAVAVVASKEIDIEDTLGCRALVIVEDTNAVLAALASSFYRHPSKNMSVIGVTGTDGKTTTTYLIKSLYEAMGVRTGMFSTVSCYIHGDNKLDTPNATMNPDAVLVQSLMAKMLHNGTESLVMEASPQELALGKCDEVDFDIAVFTNLTRENTDFRGTDEEYRDAEAKLFSRMVDPERHRKVVNIDDPNAAFFVQQGNPNVPVVTFAMENTKADVHPLKFELSLFETQVLVNTPQGILEISSGLLGRHNIYNILAAVAVGIAVGAPLEDIVRGVEEVDAVPGRCELIDEEQAFGVIVDHANTPDGLSRLLDSIRELKPRRIITVIGCEGENERGKRPLMTKIATEKSDVTMLTSDNPRNEDPLDILDDMLSGIGWTMQEYLKHGEHDYYPPLANGHRLFLHDIRRVAVRCAVAMGEEGDMVVVAGKGHEAYQLEGEKKEFYDDREECREALQYVDELHQAGIDTSEFPWRLPESH
B7: mTERF1/SOLDAT1 (protein, UniProt Q84X53 1-284)
chain: MMIARCSLFPPPCFSAVRIRCFAGETSDTGILFREKLIYLQDLNVDPHKALRVNPSLRSAPISSVVSVETLLSSTGLSRPAVGRILDMFPDLLTSDPESEILPVLRFLSNEISISEQDIPKSISRCPRLLISSVDYQLRPALTFLKTLGFVGRDTITSRNTVLLVSNVERTLIPKIEYLEEGLGFTREEVAKMVVRSPALLTYSVDNNLVPKVEFFIEEMRGDVKELKRFPQYFSFSLERKIKPRHRLLKEHGILMPLSEMLKVSDGQFNHWLLELRLRSAERR
B8: mTERF2/EMB221 (protein, UniProt F4IHL3 1-641)
chain: MLLHCNVSYYTSTFSFISSSLRRQDNADDSQDTVIRRRHNARSISLYIRHNRDLKLNKNPNESQETFVPPPPPPRRDLDGENRSKLLELSLVTRRTPQFPGSIYAQSASDADIASSLPSLRNFLGSDGDDDGESEREMIVKALEIRRKVTKEIIKESLVRKGRFGITYATNVTDRLGDFVDHVMIQAAALKRLPEFSESRFNLRARTVIEDSNFVPLVRWLKHHELSYNRIAKIICMSKGNLDSIRIMIEWLKSIHVKGEFIAVAFLRSGDNILQRNREELNEIVEYLESNGVRRDWMGYVVGRCPELLSFSMEEVKSRVDFFLKMGMNQNDFGTMVYDYPKIIGFFSFQVMEKKINYLKEFGLSTEEVGRLLAYKPHLMGCSIEERWKPLVKYFYYLGIPKEGMKRILVVKPILYCIDLEKTIAPKVRFLQEMGIPNEAIGNMLVKFPSLLTNSLYKKIRPVVIFLLTRAGVTQKDIGKVIAMDPALLGCSIGTKLEPNMRYYISLGIRFYQLGEMIADFPMLLRYNVDNLRPKYRYLRRTMIRPLQDLIEFPRFFSYSLERRIIPRHTIMVENRVNFKLRYMLACTDEEFERRVRDKVERRERFEAGLDSEDSQPSDENISDQEIAFSDEAEEEEDLTE
B9: mTERF4/BSM/RUG2 (protein, UniProt Q9ZT96 1-541)
chain: MKIRFCNGFTKPGFLLVHFEPPSFFAVRSRSLSDSTYGNLCNHKKRPGTGIGLTVQCAIANRRFSSRSLDSPRRERSSRSSSSSGRDRDRDKDKGRDSKSLYSRPSLLDMNKEKAANRAKVYEFLRGIGIVPDELDGLELPVTADVMKERVEFLHKLGLTIEDINNYPLVLGCSVKKNMVPVLDYLGKLGVRKSTFTEFLRRYPQVLHSSVVIDLAPVVKYLQGLDIKPSDVPRVLERYPEVLGFKLEGTMSTSVAYLVGIGVARREIGGILTRYPEILGMRVARIIKPLVEYLEVLGIPRLAAARLIEKRPHILGFELDDTVKPNVQILQDFNVRETSLPSIIAQYPEIIGIDLKPKLDTQRKLLCSAIHLNPEDLGSLIERMPQFVSLSESPMLKHIDFLTKCGFSIDQTREMVIGCPQVLALNLGIMKLSFEYFQKEMKRPLQDLVDFPAFFTYGLESTVKPRHKKIIKKGIKCSLAWMLNCSDEKFEQRMSYDTIDIEEVETDPSSFDMNTLMQPEREEESDSEYEEEEDDDDEEFA
B10: mTERF5/MDA1 (protein, UniProt F4JVI3 1-493)
chain: MQSLSQLGPSEIFLVARREKPSTRAQLWFTGRLSFRQETNGIRLKNRVEFSPRPVPPNLIAAEKEEAKAVLTLFFKKQGLSNSLSSRLINKSDLFIDHLVSRLHSVHKARYLVGRELTTLEIRDSLIPYLEQLHEEHGDLLAELVVSFPDPPAEPRLVASSPVSVLPPRGDTDSAADTRKLRAVSRVSELDTEGALRPQTLYLLDLGLNLEQIKTITRKFAAFPYYSLDGKIKPVVEFLLDLGIPKSDIPTILCKRPQICGISLTDNLKPTMAFLETLGIDKNQWAKIISRFPAILTYSRQKLTSTVEFLSQTGLTEEQIGRILTRCPNIMSYSVEDKLRPTMEYFRSLNVDVAVLLHRCPQTFGLSIESNLKPVTEFFLEKGFGLDEIGIMISRYGALYTFSLKENVMPKWDYFQTMDYPKSELVKFPQFFGYSLQERIKPRYELVQRSGVRLLLNQVLSLSGIEFEKVVKKKMMKLVSNNVIAEQSSGGLL
B11: mTERF6/PDE191 (protein, UniProt Q9SZL6 1-333)
chain: MEVTNTSSIMWFFRDKGFDDPSIDKMLRKCKQLEKAQSDVASENWDYLSNIVGIQERKLPYIVSRCPKILTLRLDERLIPMVECLSSLGRNPREVASAITKFPPILSHSVEEKLCPLLAFFQALGVPETQLGKMILFNPRLISYSIDTKLTVIVSFLASLGLDQDGMIGKVLVKNPFLMGYSVDKRLRPTTEFLKSSVGLSEDGIKSVVMNFPQLLCRDVNKILKPNYDYLKECGFGDSQIATMVTGYPQILIKSVKNSLQPRIRFLVQVMGRGMDEVASYPEFFHHGLKKKVESRFKLVKKNNIDCSLREMLDCNTKKFHEKFGFSEVTASF
B12: rpoB (protein, UniProt P50546 1-1072)
chain: MLGDEKEGTSAIPGFNQIQFEGFYRFIDQGLIEELAKFPKIEDIDHEIEFQLFVETYQLVEPLIKERDAVYESLTYSSELYVSAGLIWKTSRNMQEQRIFIGNIPLMNSLGTSIVNGIYRIVINQILQSPGIYYQSELDHNGISVYTGTIISDWGGRLELEIDKKARIWARVSRKQKISILVLSSAMGLNLREILENVCYPEIFLSFLTDKEKKKIGSKENAILEFYQQFSCVGGDPIFSESLCKELQKKFFHQRCELGRIGRRNINWRLNLNIPQNNIFLLPRDVLAAADHLIGMKFGMGTLDDMNHLKNKRIRSVADLLQDQLGLALARLENVVKGTISGAIRHKLIPTPQNLVTSTPLTTTYESFFGLHPLSQVLDRTNPLTQIVHGRKLSYLGPGGLTGRTANFRIRDIHPSHYGRICPIDTSEGINVGLIGSLSIHARIGDWGSLESPFYELFEKSKKARIRMLFLSPSQDEYYMIAAGNSLALNRGIQEEQAVPARYRQEFLTIAWEEVHLRSIFPFQYFSIGASLIPFIEHNDANRALMSSNMQRQAVPLSRSEKCIVGTGLERQVALDSGVPAIAEHEGKILYTDTEKIVFSGNGDTLSIPLIMYQRSNKNTCMHQKPQVRRGKCIKKGQILADGAATVGGELALGKNILVAYMPWEGYNFEDAVLISECLVYGDIYTSFHIRKYEIQTHVTTQGPERITKEIPHLEGRLLRNLDKNGIVMLGSWVETGDILVGKLTPQVAKESSYAPEDRLLRAILGIQVSTSKETCLKLPIGGRGRVIDVRWVQKKGGSSYNPEIIRVYISQKREIKVGDKVAGRHGNKGIISKILPRQDMPYLQDGRPVDMVFNPLGVPSRMNVGQIFECSLGLAGSLLDRHYRIAPFDERYEQEASRKLVFSELYEASKQTANPWVFEPEYPGKSRIFDGRTGDPFEQPVIIGKPYILKLIHQVDDKIHGRSSGHYALVTQQPLRGRSKQGGQRVGEMEVWALEGFGVAHILQEMLTYKSDHIRARQEVLGTTIIGGTIPKPEDAPESFRLLVRELRSLALELNHFLVSEKNFQINRKEV

molecular target: Seedling Lethal 1 (SL1/mTERF3) (Arabidopsis thaliana); experiment: two-hybrid; SL1 as bait (GAL4 DNA binding domain, pGBKT7), PEP complex proteins and chloroplast mTERF proteins as prey (GAL4 activation domain, pGADT7); yeast strain Y2H Gold; growth on SD/-Trp-Leu, SD/-Trp-Leu-His and SD/-Trp-Leu-His-Ade

Question: With B1 as the binder, how does the binding read?
Answer: no binding

Question: With B2 as the binder, how does the binding read?
Answer: no binding

Question: How did the binding turn out when B3 was run?
Answer: no binding

Question: With B4 as the binder, how does the binding read?
Answer: no binding

Question: For B5, which binding is on record?
Answer: no binding

Question: B6 was tested. Which binding did it give?
Answer: no binding

Question: For B7, which binding is on record?
Answer: no binding

Question: How did the binding turn out when B8 was run?
Answer: no binding

Question: With B9 as the binder, how does the binding read?
Answer: no binding

Question: Which binding does the source give for B10 here?
Answer: no binding

Question: B11 was tested. Which binding did it give?
Answer: no binding

Question: Which binding does the source give for B12 here?
Answer: no binding
